Measured values as given in patent US10525115B2 (Immatics Biotechnologies GmbH, priority 2014, dated 2020).

Assays:
Set-up in all cases: species or system human
[1] = system: BMNC of healthy donors; assay: HLA class I ligandome analysis (LC-MS/MS) of healthy donor BMNC; details: HLA class I ligandome, 5 BMNC samples; second figure of the cell
[2] = system: cancer tissues in comparison to non-cancerous tissues and organs; assay: Presentation profile / over-presentation by label-free LC-MS (XPRESIDENT), tumor versus normal tissues, other proliferative diseases; details: other proliferative diseases / organs (other than AML) that over- or exclusively present the peptide; Table 5
[3] = system: PBMC of healthy donors; assay: HLA class I ligandome analysis (LC-MS/MS) of healthy donor PBMC; details: HLA class I ligandome, 30 PBMC samples; first figure of the cell
[4] = system: primary AML samples; assay: HLA class I ligandome analysis (W6/32 immunoaffinity purification, LC-MS/MS) of primary AML samples; details: for Number of positive AMLs: HLA class I ligandome, 15 AML samples

Substance: 332 (SIRDTPAKNAQK; listed as Homo sapiens) [compound 332]
- Number of positive healthy donors (BMNC) [1]: 0
- Proliferative disease and location thereof [2]: stomach, adenocarcinoma, lymph node, non- Hodgkin's lymphoma
- Number of positive healthy donors (PBMC) [3]: 1
- Number of positive AMLs [4]: 1

Substance: 333 (SPIKVTLATL; listed as Homo sapiens) [compound 333]
- Number of positive healthy donors (BMNC) [1]: 0
- Proliferative disease and location thereof [2]: stomach, adenocarcinoma, lymph node, non- Hodgkin's lymphoma
- Number of positive healthy donors (PBMC) [3]: 3
- Number of positive AMLs [4]: 0

Substance: 334 (TPPVVLRL; listed as Homo sapiens) [compound 334]
- Number of positive healthy donors (BMNC) [1]: 0
- Proliferative disease and location thereof [2]: stomach, adenocarcinoma, colon, non-Hodgkin's; lymphoma
- Number of positive healthy donors (PBMC) [3]: 6
- Number of positive AMLs [4]: 2

Substance: 335 (VEAKFINY; listed as Homo sapiens) [compound 335]
- Number of positive healthy donors (BMNC) [1]: 0/0
- Proliferative disease and location thereof [2]: stomach, adenocarcinoma, colon, non-Hodgkin's; lymphoma
- Number of positive healthy donors (PBMC) [3]: 0/0
- Number of positive AMLs [4]: 1

Substance: 336 (YEGSPIKV; listed as Homo sapiens) [compound 336]
- Number of positive healthy donors (BMNC) [1]: 0/0
- Proliferative disease and location thereof [2]: stomach, adenocarcinoma, colon, non-Hodgkin's; lymphoma
- Number of positive healthy donors (PBMC) [3]: 0/0
- Number of positive AMLs [4]: 1

Substance: 337 (YEGSPIKVTL; listed as Homo sapiens) [compound 337]
- Number of positive healthy donors (BMNC) [1]: 0
- Proliferative disease and location thereof [2]: stomach, adenocarcinoma, colon, non-Hodgkin's; lymphoma
- Number of positive healthy donors (PBMC) [3]: 3
- Number of positive AMLs [4]: 3

Substance: 338 (SELKMMTQL; listed as Homo sapiens) [compound 338]
- Number of positive healthy donors (BMNC) [1]: 0/0
- Proliferative disease and location thereof [2]: lymph node, non-Hodgkin's lymphoma
- Number of positive healthy donors (PBMC) [3]: 0/0
- Number of positive AMLs [4]: 1
- AML-exclusivity with regard to HLA presentation ([4]; versus PBMC and BMNC of healthy donors): AML-exclusivity

Substance: 339 (EKDPQPQQL; listed as Homo sapiens) [compound 339]
- Number of positive healthy donors (BMNC) [1]: 0
- Proliferative disease and location thereof [2]: lung, non-small cell lung carcinoma, schwannoma
- Number of positive healthy donors (PBMC) [3]: 1
- Number of positive AMLs [4]: 0

Substance: 340 (GYVPRTAL; listed as Homo sapiens) [compound 340]
- Number of positive healthy donors (BMNC) [1]: 0
- Proliferative disease and location thereof [2]: lung, non-small cell lung carcinoma, schwannoma
- Number of positive healthy donors (PBMC) [3]: 1
- Number of positive AMLs [4]: 0

Substance: 341 (KEKDPQPQQL; listed as Homo sapiens) [compound 341]
- Number of positive healthy donors (BMNC) [1]: 0/0
- Proliferative disease and location thereof [2]: lung, non-small cell lung carcinoma, schwannoma
- Number of positive healthy donors (PBMC) [3]: 0/0
- Number of positive AMLs [4]: 1

Substance: 342 (LPKKPSKLEL; listed as Homo sapiens) [compound 342]
- Number of positive healthy donors (BMNC) [1]: 0
- Proliferative disease and location thereof [2]: lung, non-small cell lung carcinoma, schwannoma
- Number of positive healthy donors (PBMC) [3]: 1
- Number of positive AMLs [4]: 1

Substance: 343 (RPSAASIDL; listed as Homo sapiens) [compound 343]
- Number of positive healthy donors (BMNC) [1]: 1
- Proliferative disease and location thereof [2]: lung, non-small cell lung carcinoma, schwannoma
- Number of positive healthy donors (PBMC) [3]: 0
- Number of positive AMLs [4]: 1

Substance: 344 (SRHPLSPGF; listed as Homo sapiens) [compound 344]
- Number of positive healthy donors (BMNC) [1]: 0/0
- Proliferative disease and location thereof [2]: lung, non-small cell lung carcinoma, schwannoma
- Number of positive healthy donors (PBMC) [3]: 0/0
- Number of positive AMLs [4]: 1

Substance: 345 (TPRSPQPEL; listed as Homo sapiens) [compound 345]
- Number of positive healthy donors (BMNC) [1]: 1
- Proliferative disease and location thereof [2]: lung, non-small cell lung carcinoma, schwannoma
- Number of positive healthy donors (PBMC) [3]: 0
- Number of positive AMLs [4]: 1

Substance: 346 (GRIVAFFEF; listed as Homo sapiens) [compound 346]
- Number of positive healthy donors (BMNC) [1]: 0/0
- Proliferative disease and location thereof [2]: kidney, clear cell renal cell carcinoma, thyroid; gland, nodular hyperplasia
- Number of positive healthy donors (PBMC) [3]: 0/0
- Number of positive AMLs [4]: 1

Substance: 347 (HTPHPAASR; listed as Homo sapiens) [compound 347]
- Number of positive healthy donors (BMNC) [1]: 0
- Proliferative disease and location thereof [2]: kidney, clear cell renal cell carcinoma, thyroid; gland, nodular hyperplasia
- Number of positive healthy donors (PBMC) [3]: 1
- Number of positive AMLs [4]: 0

Substance: 348 (NPDELKTTV; listed as Homo sapiens) [compound 348]
- Number of positive healthy donors (BMNC) [1]: 0
- Proliferative disease and location thereof [2]: lung, non-small cell lung carcinoma, testis, seminoma
- Number of positive healthy donors (PBMC) [3]: 1
- Number of positive AMLs [4]: 0

Substance: 349 (PSKQLPDQI; listed as Homo sapiens) [compound 349]
- Number of positive healthy donors (BMNC) [1]: 1
- Proliferative disease and location thereof [2]: lung, non-small cell lung carcinoma, testis, seminoma
- Number of positive healthy donors (PBMC) [3]: 0
- Number of positive AMLs [4]: 0

Substance: 350 (VYVERAEVL; listed as Homo sapiens) [compound 350]
- Number of positive healthy donors (BMNC) [1]: 0
- Proliferative disease and location thereof [2]: lung, non-small cell lung carcinoma, testis, seminoma
- Number of positive healthy donors (PBMC) [3]: 3
- Number of positive AMLs [4]: 1

Substance: 351 (DPFIIIHSI; listed as Homo sapiens) [compound 351]
- Number of positive healthy donors (BMNC) [1]: 0
- Proliferative disease and location thereof [2]: colon or rectum, uterine cervix, squamous cell carcinoma
- Number of positive healthy donors (PBMC) [3]: 5
- Number of positive AMLs [4]: 2

Substance: 352 (EHSIATLLL; listed as Homo sapiens) [compound 352]
- Number of positive healthy donors (BMNC) [1]: 0
- Proliferative disease and location thereof [2]: colon or rectum, uterine cervix, squamous cell carcinoma
- Number of positive healthy donors (PBMC) [3]: 1
- Number of positive AMLs [4]: 2

Substance: 353 (FLDPRPLTV; listed as Homo sapiens) [compound 353]
- Number of positive healthy donors (BMNC) [1]: 1
- Proliferative disease and location thereof [2]: pancreas, adenocarcinoma, myometrium, leiomyoma
- Number of positive healthy donors (PBMC) [3]: 6
- Number of positive AMLs [4]: 1

Substance: 354 (SAFADRPAF; listed as Homo sapiens) [compound 354]
- Number of positive healthy donors (BMNC) [1]: 0
- Proliferative disease and location thereof [2]: pancreas, adenocarcinoma, myometrium, leiomyoma
- Number of positive healthy donors (PBMC) [3]: 1
- Number of positive AMLs [4]: 0

Substance: 355 (DTTLPASAR; listed as Homo sapiens) [compound 355]
- Number of positive healthy donors (BMNC) [1]: 0/0
- Proliferative disease and location thereof [2]: stomach, adenocarcinoma, rectum, adenocarcinoma
- Number of positive healthy donors (PBMC) [3]: 0/0
- Number of positive AMLs [4]: 1

Substance: 356 (KLLEYIEEI; listed as Homo sapiens) [compound 356]
- Number of positive healthy donors (BMNC) [1]: 0/0
- Proliferative disease and location thereof [2]: stomach, adenocarcinoma, rectum, adenocarcinoma
- Number of positive healthy donors (PBMC) [3]: 0/0
- Number of positive AMLs [4]: 1

Substance: 357 (LEKQLIEL; listed as Homo sapiens) [compound 357]
- Number of positive healthy donors (BMNC) [1]: 0
- Proliferative disease and location thereof [2]: stomach, adenocarcinoma, rectum, adenocarcinoma
- Number of positive healthy donors (PBMC) [3]: 1
- Number of positive AMLs [4]: 0

Substance: 359 (ESITDVLVR; listed as Homo sapiens) [compound 359]
- Number of positive healthy donors (BMNC) [1]: 0
- Proliferative disease and location thereof [2]: pancreas, adenocarcinoma, stomach, adenocarcinoma
- Number of positive healthy donors (PBMC) [3]: 3
- Number of positive AMLs [4]: 2

Substance: 369 (AELEAARL; listed as Homo sapiens) [compound 369]
- Number of positive healthy donors (BMNC) [1]: 0
- Proliferative disease and location thereof [2]: lung, non-small cell lung carcinoma, testis, seminoma
- Number of positive healthy donors (PBMC) [3]: 1
- Number of positive AMLs [4]: 0

Substance: 370 (ATQTPVSNK; listed as Homo sapiens) [compound 370]
- Number of positive healthy donors (BMNC) [1]: 1
- Proliferative disease and location thereof [2]: colon or rectum, rectum, adenocarcinoma
- Number of positive healthy donors (PBMC) [3]: 0
- Number of positive AMLs [4]: 1
